Test results published in PubChem BioAssay AID1671190 (National Center for Advancing Translational Sciences (NCATS), 2021).
About 6,100 (1.1%) of roughly 580,000 compounds were called active. Inconclusive means that the source gave no clear call. Such entries were picked first, then a sample of the others. Calls follow the shape of the dose curve; as a rule, active = well fitted inhibition curve with a large enough effect; inconclusive = small, poorly fitted or top-dose-only effect, or another doubt; inactive = no such curve, though single readings can be large or run the other way. Potencies of inconclusive entries are doubtful fits and often do not repeat.

Protein sequences, listed by entry. Tags and fused reporters are not part of them.
UniProt P18054, whole entry, looked up: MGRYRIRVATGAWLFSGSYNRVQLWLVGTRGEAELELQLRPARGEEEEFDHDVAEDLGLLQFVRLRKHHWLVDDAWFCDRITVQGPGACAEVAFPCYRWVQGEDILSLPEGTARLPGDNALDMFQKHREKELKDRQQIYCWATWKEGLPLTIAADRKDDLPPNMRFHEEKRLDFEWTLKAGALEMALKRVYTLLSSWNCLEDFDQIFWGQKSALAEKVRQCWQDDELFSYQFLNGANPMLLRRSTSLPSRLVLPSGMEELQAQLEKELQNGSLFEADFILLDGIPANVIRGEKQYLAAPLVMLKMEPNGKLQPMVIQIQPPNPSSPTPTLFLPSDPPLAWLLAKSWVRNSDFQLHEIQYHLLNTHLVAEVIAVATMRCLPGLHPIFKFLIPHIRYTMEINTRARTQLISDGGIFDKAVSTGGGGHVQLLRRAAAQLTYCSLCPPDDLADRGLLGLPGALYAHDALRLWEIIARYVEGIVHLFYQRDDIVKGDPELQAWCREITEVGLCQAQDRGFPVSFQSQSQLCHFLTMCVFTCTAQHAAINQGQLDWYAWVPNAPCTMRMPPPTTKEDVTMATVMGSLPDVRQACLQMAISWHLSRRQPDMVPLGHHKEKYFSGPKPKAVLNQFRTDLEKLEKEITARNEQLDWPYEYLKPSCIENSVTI

Molecular target: Polyunsaturated fatty acid lipoxygenase ALOX12 (Homo sapiens) (UniProt P18054)
Experiment: Primary qHTS assay for inhibitors of human arachidonate 12S-lipoxygenase (ALOX12): Round 2
Details: purified 12hLO, xylenol orange hydroperoxide absorbance
Procedure, shortened: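 Hydroperoxide product was detected by ferrous iron/xylenol orange as the 573 to 405 nm absorbance ratio. Arachidonic acid at 40 uM (final) was turned over for 30 min at room temperature by 150 nM human 12hLO, pH 7.0 Hepes buffer, after 15 min compound preincubation.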

[1] = activity change, negative = inhibition: at 108 µM (top of the series) unless noted
% is scaled to controls: 0 for no effect and ±100 for the full control effect; potency is read from the fitted curve at half-maximal effect.

## CCOC(=O)CNC(=O)NCc1cccn1Cc1c(C)cc(C)cc1C
[1]
  Potency: inconclusive: 39.8 µM [inhibitor, partial curve]

## COc1cccc(CC(=O)N[C@@H]2CN(Cc3ccncc3)C[C@H]2CN(C)C)c1
[1]
  Potency: inactive

## Cc1ccc(N/N=C/c2ccc3c(c2)OCCO3)cc1Cl
[1]
  Potency: inconclusive: 3.16 µM [inhibitor, full curve, poor fit]

## COc1ccc(-n2cc(C(=O)c3cc(Cl)ccc3O)cc(C#N)c2=O)cc1
[1]
  Potency: inconclusive: 79.4 µM [inhibitor, partial curve, poor fit]

## CCN1CCN(CCOc2ccc3cc(-c4ccccc4)c(=O)oc3c2)CC1
[1]
  Potency: inconclusive: 50.1 µM [inhibitor, partial curve, poor fit]

## O=C(/C=C/N1CCN(C/C=C/c2ccccc2)CC1)C(F)(F)F
[1]
  Potency: inconclusive: 100 µM [inhibitor, single point]

## CCCOC(=O)c1ccccc1
[1]
  Potency: inactive

## CC(C)C(NC(=O)c1ccc(Cl)cc1Cl)C(=O)NCc1cnn(-c2ccccc2)c1 (configuration not stated)
[1]
  Potency: inconclusive: 35.5 µM [inhibitor, single point]

## O=c1[nH]c(=S)[nH]c2c1C(c1ccc(Cl)c(Cl)c1)OC(CCc1ccccc1)C2 (configuration not stated)
[1]
  Potency: inconclusive: 7.94 µM [inhibitor, full curve, poor fit]

## CC(NC(C)C1CC2CCC1C2)C(=O)N(C)Cc1cccc(F)c1 (configuration not stated)
[1]
  Potency: inconclusive: 31.6 µM [inhibitor, partial curve, poor fit]

## c1ccc(COc2ncnc3c2ncn3CCCNCC(c2ccccc2)c2ccccc2)cc1
[1]
  Potency: inconclusive: 79.4 µM [inhibitor, partial curve, poor fit]

## COc1cc(/C=N/NC(=O)CCNC(=O)c2ccccc2Cl)ccc1O
[1]
  Potency: inactive

## c1ccc(-c2csc3ncnc(N4CCc5ccccc5C4)c23)cc1
[1]
  Potency: inactive

## N#C/C(=C/c1ccc2c(c1)OCO2)c1nc2ccccc2[nH]1
[1]
  Potency: inconclusive: 12.6 µM [inhibitor, partial curve, poor fit]

## Cc1ccc(OCCn2nc(C(=O)O)c3ccccc3c2=O)cc1
[1]
  Potency: inconclusive: 44.7 µM [inhibitor, partial curve, poor fit]

## O=C(CCc1cccnc1)NCC1CC1
[1]
  Potency: inactive

## CC(C)C(NC(=O)C1CCCCC1)C(=O)NC1=NCCS1 (configuration not stated)
[1]
  Potency: inconclusive: 44.7 µM [inhibitor, partial curve, poor fit]

## COc1cc(/C=N/N(C)C)ccc1OC(=O)c1ccco1
[1]
  Potency: inactive

## COC(=O)C1C(O)=C(C=Nc2ccccc2)C(=O)CC1(C)C (configuration not stated)
[1]
  Potency: inactive

## FC(F)(F)c1cnc(NNC(=S)Nc2ccccc2)c(Cl)c1
[1]
  Potency: inconclusive: 44.7 µM [inhibitor, partial curve, poor fit]

## CCOC(=O)c1c(-c2ccc([N+](=O)[O-])cc2)[nH]c2ccc(C)cc12
[1]
  Potency: inconclusive: 126 µM [inhibitor, partial curve, poor fit]

## CCOc1cc(C2C(C(=O)Nc3ccc(OC)cc3)=C(C)Nc3nc(SC)nn32)ccc1O (configuration not stated)
[1]
  Potency: inconclusive: 89.1 µM [inhibitor, partial curve, poor fit]

## O=C(C1CCN(c2ncnc3c2nc2n3CCCCC2)CC1)N1CCN(c2ccc(F)cc2)CC1
[1]
  activity change, negative = inhibition: inconclusive: -38.1% [inhibitor]
At 108 µM (top of the series)
  activity change, negative = inhibition: inactive: 14.3%

## CC(C)(C)c1cc(C(=O)O)c(CN2CCCCC2)o1
[1]
  Potency: inconclusive: 39.8 µM [inhibitor, partial curve, poor fit]

## CC(C)(C)CN1CCNC(=O)C1CC(=O)O (configuration not stated)
[1]
  Potency: inactive

## O=C(COC(=O)Cc1ccc(Cl)cc1)NCc1ccco1
[1]
  Potency: inconclusive: 50.1 µM [inhibitor, partial curve, poor fit]

## CCNCCC(=O)N1c2ccccc2Sc2ccc(NC(=O)OCC)cc21
[1]
  Potency: inconclusive: 50.1 µM [inhibitor, partial curve, poor fit]

## Cn1cnc(C(=O)N2CCN(c3ccccc3)CC2)c1C(=O)N1CCN(c2ccccc2)CC1
[1]
  Potency: inconclusive: 50.1 µM [inhibitor, partial curve, poor fit]

## Cc1ccc(S(=O)(=O)N(C)C)cc1NC(=O)CCc1c[nH]c2ccccc12
[1]
  Potency: inconclusive: 39.8 µM [inhibitor, partial curve, poor fit]

## O=C(/C=C/c1ccc(-c2cccc(Cl)c2Cl)o1)c1ccccc1
[1]
  Potency: inconclusive: 35.5 µM [inhibitor, partial curve, poor fit]

## C[C@@H]1CN([C@@H](C)CO)C(=O)c2cc(NC(=O)C3CCCCC3)ccc2O[C@@H](C)CCCCO[C@@H]1CN(C)C(=O)CCCN(C)C
[1]
  Potency: inconclusive: 31.6 µM [inhibitor, partial curve, poor fit]

## COc1ccc(C(c2c(NC(C)=O)sc3c2CCCC3)N2CCN(CCO)CC2)cc1OC (configuration not stated)
[1]
  Potency: inactive

## CC(Sc1cc(Cl)ccc1Cl)C(=O)NC(C)c1ccccn1 (configuration not stated)
[1]
  Potency: inactive

## COc1ccc(NCC(=O)NN=C2CCS(=O)(=O)c3ccc(F)cc32)cc1
[1]
  Potency: inconclusive: 100 µM [inhibitor, single point]

## NS(=O)(=O)c1ccc(NC(=S)NC(=O)c2ccc3c(c2)OCO3)cc1
[1]
  Potency: inactive

## CCn1c(C(=O)NC2CCN(CC(=O)NC(C)C)CC2)cc2ccccc21
[1]
  Potency: inactive

## O=C1NC[C@H](CCCCN2C[C@H](Cc3ccccc3)N(CC3CCCCC3)C(=O)C2=O)N(CCc2ccccc2)C1=O
[1]
  Potency: inconclusive: 79.4 µM [inhibitor, partial curve, poor fit]

## Cc1ccc(-c2nc3ccccc3s2)cc1NC(=O)COc1ccccc1
[1]
  Potency: inconclusive: 5.62 µM [inhibitor, partial curve, poor fit]

## Cn1nc(C(F)(F)F)c(Br)c1C(=O)Nc1sc2c(c1C#N)CCC2
[1]
  Potency: inconclusive: 56.2 µM [inhibitor, partial curve, poor fit]

## Cc1ccc(OCC(=O)NCC2(N3CCOCC3)CCCCC2)cc1C
[1]
  Potency: inconclusive: 56.2 µM [inhibitor, partial curve, poor fit]

## CCOc1ccc(NS(=O)(=O)c2ccc(-c3cnc(C4CC4)o3)cc2)cc1
[1]
  Potency: inconclusive: 89.1 µM [inhibitor, partial curve, poor fit]
